Test results from US8741954B2, “Synergistic enhancement of calcium propionate” (ViraTox, L.L.C., priority 2007, dated 2014).
At least one structure is not confirmed: it was looked up by name or label, or the drawing left a doubt.

Test system: Aspergillus niger (ATCC #6275), Chaetomium globosum (ATCC #6205) and Aspergillus terreus (ATCC #10690) suspensions
Assay: TAPPI T 487 pm-99 fungal resistance of treated paper
Type: cell-based
Details: treated Whatman paper coupons, 28° C., 21 day test, observed weekly
Description: This method is used to determine the resistance of paper and paperboard to fungal growth in ideally suited controlled conditions of light, temperature, moisture, and food supply. Treated 50 mm test coupons of paper are placed on a surface of test agar, flooded with a test inoculum of fungal spores, and incubated to determine fungal resistance. The rating that is provided follows an established protocol to determine the degree of mold growth on a rating scale reported as 1) not fungal resistant; 2) moderately fungal resistant; and 3) resistant.
Challenges of treated porous surfaces, represented by selected samples of untreated paper product specified as Whatman filter paper #4 and paper product specified as Whatman filter paper #4 treated with a solution of fungicides, are exposed to designated fungal suspensions known to cause failure under certain use conditions. The test samples are prepared according to T 487 pm-99 by aseptically removing pre-sterilized 50 mm paper coupons, previously equilibrated to room temperature, and then placed in a controlled chamber at 28+/−1° C. (82.40 F) and 95%-98% RH. The chamber is fitted with a tray filled with a salt solution to maintain humidity control. The test ensues continuously for 21 days and samples are observed weekly. The panels are rated each week according to the appearance of fungal growth. […]

CCCCCCCCCCCCCCCC[n+]1ccccc1 [1.25% cetylpyridinium chloride, cetylpyridinium chloride]
Resistance Grade: Not resistant
